# Source: PubChem BioAssay AID1259308 (NCATS, 2017)
# Screen: 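Knock-downs that increase output of a recombinant reporter protein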 (primary screen)
# System: human HEK293 embryonic kidney cells stably expressing firefly luciferase (HEK-CMV-Luc2-Hygro)
# Reagent: single siRNA against human genes, 0.8 pmol siRNA per well
# Timing: 72 h
# Measurement: 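Luciferase light (ONE-Glo) measured on one replicate plate set and viability (CellTiter-Glo) on the other, scaled to a negative control siRNA, with robust z-scores and luciferase per cell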
# Direction: total luciferase, z-score and total luciferase, % of control: higher = more reporter protein produced
# Call rule: 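An siRNA counts as active if its total luciferase robust z-score exceeds 3; genes with two or more such siRNAs out of three were retested with fresh siRNAs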
# Calls: active = raised luciferase; inactive = no rise
# Shown is one part, drawn at random, of about 59,000 deposited reagents. About 1,510 of them (2.6%) were called active. 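Calls use total luciferase alone and ignore viability, so some active siRNAs may act by altering cell number.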 Reagents against one gene are numbered here. Further read-outs or replicates are left out here.
target gene,reagent no.,"total luciferase, z-score","total luciferase, % of control",activity call
ZNF274 (zinc finger protein 274),1,0.039,82.7,inactive
ZNF274 (zinc finger protein 274),2,-0.92,63.6,inactive
ZNF274 (zinc finger protein 274),3,-0.932,63.4,inactive
SF1 (splicing factor 1),1,1.22,106,inactive
SF1 (splicing factor 1),2,-0.0522,80.8,inactive
SF1 (splicing factor 1),3,2.12,124,inactive
TTLL10 (tubulin tyrosine ligase like 10),1,-0.0998,79.9,inactive
TTLL10 (tubulin tyrosine ligase like 10),2,-1.15,59.1,inactive
TTLL10 (tubulin tyrosine ligase like 10),3,1.75,117,inactive
SLC46A1,1,-0.583,70.3,inactive
SLC46A1,2,-1.99,42.2,inactive
SLC46A1,3,-0.95,63,inactive
TMTC1 (transmembrane O-mannosyltransferase targeting cadherins 1),1,1.31,108,inactive
TMTC1 (transmembrane O-mannosyltransferase targeting cadherins 1),2,-0.757,66.8,inactive
TMTC1 (transmembrane O-mannosyltransferase targeting cadherins 1),3,-0.273,76.5,inactive
NHERF1 (NHERF family PDZ scaffold protein 1),1,-0.887,64.2,inactive
NHERF1 (NHERF family PDZ scaffold protein 1),2,-0.314,75.6,inactive
NHERF1 (NHERF family PDZ scaffold protein 1),3,1.31,108,inactive

Targets above whose gene name begins with T or t:
target gene,reagent no.,"total luciferase, z-score","total luciferase, % of control",activity call
TTLL10 (tubulin tyrosine ligase like 10),1,-0.0998,79.9,inactive
TTLL10 (tubulin tyrosine ligase like 10),2,-1.15,59.1,inactive
TTLL10 (tubulin tyrosine ligase like 10),3,1.75,117,inactive
TMTC1 (transmembrane O-mannosyltransferase targeting cadherins 1),1,1.31,108,inactive
TMTC1 (transmembrane O-mannosyltransferase targeting cadherins 1),2,-0.757,66.8,inactive
TMTC1 (transmembrane O-mannosyltransferase targeting cadherins 1),3,-0.273,76.5,inactive

The list goes on:
target gene,reagent no.,"total luciferase, z-score","total luciferase, % of control",activity call
ZNF22-AS1 (ZNF22 antisense RNA 1),1,-1.49,52.3,inactive
ZNF22-AS1 (ZNF22 antisense RNA 1),2,-0.591,70.1,inactive
ZNF22-AS1 (ZNF22 antisense RNA 1),3,-0.0804,80.3,inactive
HYAL1 (hyaluronidase 1),1,-0.436,73.2,inactive
HYAL1 (hyaluronidase 1),2,-1.45,53,inactive
HYAL1 (hyaluronidase 1),3,0.43,90.4,inactive
ZDHHC13 (zDHHC palmitoyltransferase 13),1,-2.11,39.9,inactive
ZDHHC13 (zDHHC palmitoyltransferase 13),2,0.111,84.1,inactive
ZDHHC13 (zDHHC palmitoyltransferase 13),3,-1.05,61.1,inactive
IGFBP7-AS1 (IGFBP7 antisense RNA 1),1,-0.191,78.1,inactive
IGFBP7-AS1 (IGFBP7 antisense RNA 1),2,2.77,137,inactive
IGFBP7-AS1 (IGFBP7 antisense RNA 1),3,1.65,115,inactive
ARHGAP4 (Rho GTPase activating protein 4),1,1.33,108,inactive
ARHGAP4 (Rho GTPase activating protein 4),2,-1,61.9,inactive
ARHGAP4 (Rho GTPase activating protein 4),3,-0.819,65.6,inactive
STAB1 (stabilin 1),1,2.25,127,inactive
STAB1 (stabilin 1),2,1.59,114,inactive
STAB1 (stabilin 1),3,3.05,143,active
MDFIC (MyoD family inhibitor domain containing),1,3.27,147,active
MDFIC (MyoD family inhibitor domain containing),2,-1.03,61.4,inactive
MDFIC (MyoD family inhibitor domain containing),3,-0.519,71.6,inactive
